Some of the results follow.
Experiments:
Experiment in all cases: glycan array binding signal (z-score within array); higher = stronger binding
Conditions in all cases: glycan notation: IUPAC condensed, linker removed
GlcNAc(b1-3)Gal(b1-4)Glc = target: GlcNAc(b1-3)Gal(b1-4)Glc
Method in brief: (§1)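 Negative Z-scores can be read as non-binding. The Z-score is calculated within each array and then averaged across arrays of one protein sequence at different concentrations or buffers and across linkers. Arrays, 3228 in all, were curated from the Consortium for Functional Glycomics database and kept only where the protein sequence was available.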

[1] = target: GlcNAc(b1-3)Gal(b1-4)GlcNAc
Method in brief: as §1

[2] = target: GlcNAc(b1-3)Gal(b1-4)GlcNAc(b1-2)Man(a1-3)[GlcNAc(b1-3)Gal(b1-4)GlcNAc(b1-2)Man(a1-6)]Man(b1-4)GlcNAc(b1-4)GlcNAc
Method in brief: as §1

[3] = target: GlcNAc(b1-3)Gal(b1-4)GlcNAc(b1-2)Man(a1-3)[GlcNAc(b1-3)Gal(b1-4)GlcNAc(b1-2)Man(a1-6)]Man(b1-4)GlcNAc(b1-4)[Fuc(a1-6)]GlcNAc
Method in brief: as §1

[4] = target: GlcNAc(b1-3)Gal(b1-4)GlcNAc(b1-2)[GlcNAc(b1-3)Gal(b1-4)GlcNAc(b1-6)]Man(a1-6)[GlcNAc(b1-3)Gal(b1-4)GlcNAc(b1-2)Man(a1-3)]Man(b1-4)GlcNAc(b1-4)GlcNAc
Method in brief: as §1

[5] = target: GlcNAc(b1-3)Gal(b1-4)GlcNAc(b1-3)Gal(b1-4)GlcNAc
Method in brief: as §1

[6] = target: GlcNAc(b1-3)Gal(b1-4)GlcNAc(b1-3)Gal(b1-4)GlcNAc(b1-2)Man(a1-3)[GlcNAc(b1-3)Gal(b1-4)GlcNAc(b1-3)Gal(b1-4)GlcNAc(b1-2)Man(a1-6)]Man(b1-4)GlcNAc(b1-4)GlcNAc
Method in brief: as §1

[7] = target: GlcNAc(b1-3)Gal(b1-4)GlcNAc(b1-3)Gal(b1-4)GlcNAc(b1-2)Man(a1-3)[GlcNAc(b1-3)Gal(b1-4)GlcNAc(b1-3)Gal(b1-4)GlcNAc(b1-2)Man(a1-6)]Man(b1-4)GlcNAc(b1-4)[Fuc(a1-6)]GlcNAc
Method in brief: as §1

[8] = target: GlcNAc(b1-3)Gal(b1-4)GlcNAc(b1-3)Gal(b1-4)GlcNAc(b1-2)[GlcNAc(b1-3)Gal(b1-4)GlcNAc(b1-3)Gal(b1-4)GlcNAc(b1-6)]Man(a1-6)[GlcNAc(b1-3)Gal(b1-4)GlcNAc(b1-3)Gal(b1-4)GlcNAc(b1-2)Man(a1-3)]Man(b1-4)GlcNAc(b1-4)[Fuc(a1-6)]GlcNAc
Method in brief: as §1

[9] = target: GlcNAc(b1-3)Gal(b1-4)GlcNAc(b1-3)Gal(b1-4)GlcNAc(b1-3)Gal(b1-4)GlcNAc(b1-2)Man(a1-3)[GlcNAc(b1-3)Gal(b1-4)GlcNAc(b1-3)Gal(b1-4)GlcNAc(b1-3)Gal(b1-4)GlcNAc(b1-2)Man(a1-6)]Man(b1-4)GlcNAc(b1-4)GlcNAc
Method in brief: as §1

[10] = target: GlcNAc(b1-3)Gal(b1-4)GlcNAc(b1-3)Gal(b1-4)GlcNAc(b1-3)Gal(b1-4)GlcNAc(b1-2)Man(a1-3)[GlcNAc(b1-3)Gal(b1-4)GlcNAc(b1-3)Gal(b1-4)GlcNAc(b1-3)Gal(b1-4)GlcNAc(b1-2)Man(a1-6)]Man(b1-4)GlcNAc(b1-4)[Fuc(a1-6)]GlcNAc
Method in brief: as §1

[11] = target: GlcNAc(b1-3)Gal(b1-4)GlcNAc(b1-3)Gal(b1-4)GlcNAc(b1-3)Gal(b1-4)GlcNAc(b1-2)[GlcNAc(b1-3)Gal(b1-4)GlcNAc(b1-3)Gal(b1-4)GlcNAc(b1-3)Gal(b1-4)GlcNAc(b1-6)]Man(a1-6)[GlcNAc(b1-3)Gal(b1-4)GlcNAc(b1-3)Gal(b1-4)GlcNAc(b1-3)Gal(b1-4)GlcNAc(b1-2)Man(a1-3)]Man(b1-4)GlcNAc(b1-4)[Fuc(a1-6)]GlcNAc
Method in brief: as §1

[12] = target: GlcNAc(b1-3)Gal(b1-4)GlcNAc(b1-3)Gal(b1-4)GlcNAc(b1-3)Gal(b1-4)GlcNAc(b1-3)Gal(b1-4)GlcNAc(b1-2)Man(a1-3)[GlcNAc(b1-3)Gal(b1-4)GlcNAc(b1-3)Gal(b1-4)GlcNAc(b1-3)Gal(b1-4)GlcNAc(b1-3)Gal(b1-4)GlcNAc(b1-2)Man(a1-6)]Man(b1-4)GlcNAc(b1-4)GlcNAc
Method in brief: as §1

[13] = target: GlcNAc(b1-3)Gal(b1-4)GlcNAc(b1-3)Gal(b1-4)GlcNAc(b1-3)Gal(b1-4)GlcNAc(b1-3)Gal(b1-4)GlcNAc(b1-2)Man(a1-3)[GlcNAc(b1-3)Gal(b1-4)GlcNAc(b1-3)Gal(b1-4)GlcNAc(b1-3)Gal(b1-4)GlcNAc(b1-3)Gal(b1-4)GlcNAc(b1-2)Man(a1-6)]Man(b1-4)GlcNAc(b1-4)[Fuc(a1-6)]GlcNAc
Method in brief: as §1

[14] = target: GlcNAc(b1-3)Gal(b1-4)GlcNAc(b1-3)Gal(b1-4)GlcNAc(b1-3)Gal(b1-4)GlcNAc(b1-3)Gal(b1-4)GlcNAc(b1-2)[GlcNAc(b1-3)Gal(b1-4)GlcNAc(b1-3)Gal(b1-4)GlcNAc(b1-3)Gal(b1-4)GlcNAc(b1-3)Gal(b1-4)GlcNAc(b1-6)]Man(a1-6)[GlcNAc(b1-3)Gal(b1-4)GlcNAc(b1-3)Gal(b1-4)GlcNAc(b1-3)Gal(b1-4)GlcNAc(b1-3)Gal(b1-4)GlcNAc(b1-2)Man(a1-3)]Man(b1-4)GlcNAc(b1-4)[Fuc(a1-6)]GlcNAc
Method in brief: as §1

[15] = target: GlcNAc(b1-3)Gal(b1-4)GlcNAc(b1-3)Gal(b1-4)GlcNAc(b1-3)GalNAc
Method in brief: as §1

[16] = target: GlcNAc(b1-3)Gal(b1-4)GlcNAc(b1-3)GalNAc
Method in brief: as §1

[17] = target: GlcNAc(b1-3)Gal(b1-4)GlcNAc(b1-3)[GlcNAc(b1-3)Gal(b1-4)GlcNAc(b1-3)]GalNAc
Method in brief: as §1

[18] = target: GlcNAc(b1-3)Gal(b1-4)GlcNAc(b1-6)[Gal(b1-3)]GalNAc
Method in brief: as §1

[19] = target: GlcNAc(b1-3)Gal(b1-4)GlcNAc(b1-6)[GlcNAc(b1-3)Gal(b1-3)]GalNAc
Method in brief: as §1

[20] = target: GlcNAc(b1-3)Gal(b1-4)GlcNAc(b1-6)[GlcNAc(b1-3)]Gal(b1-4)GlcNAc
Method in brief: as §1

GlcNAc(b1-3)GalNAc = target: GlcNAc(b1-3)GalNAc
Method in brief: as §1

GlcNAc(b1-3)Man = target: GlcNAc(b1-3)Man
Method in brief: as §1

[21] = target: GlcNAc(b1-3)[GlcNAc(b1-4)][GlcNAc(b1-6)]GlcNAc
Method in brief: as §1

[22] = target: GlcNAc(b1-3)[GlcNAc(b1-6)]Gal(b1-4)GlcNAc
Method in brief: as §1

[23] = target: GlcNAc(b1-3)[GlcNAc(b1-6)]GalNAc
Method in brief: as §1

[24] = target: GlcNAc(b1-4)Gal(b1-4)GlcNAc
Method in brief: as §1

GlcNAc(b1-4)GlcNAc = target: GlcNAc(b1-4)GlcNAc
Method in brief: as §1

[25] = target: GlcNAc(b1-4)GlcNAc(b1-4)GlcNAc
Method in brief: as §1

[26] = target: GlcNAc(b1-4)GlcNAc(b1-4)GlcNAc(b1-4)GlcNAc(b1-4)GlcNAc
Method in brief: as §1

[27] = target: GlcNAc(b1-4)GlcNAc(b1-4)GlcNAc(b1-4)GlcNAc(b1-4)GlcNAc(b1-4)GlcNAc
Method in brief: as §1

[28] = target: GlcNAc(b1-4)[GlcNAc(b1-6)]GalNAc
Method in brief: as §1

[29] = target: GlcNAc(b1-6)Gal(b1-4)GlcNAc
Method in brief: as §1

GlcNAc(b1-6)GalNAc = target: GlcNAc(b1-6)GalNAc
Method in brief: as §1

[30] = target: GlcNAc6S(b1-3)Gal(b1-4)GlcNAc
Method in brief: as §1

Kdn(a2-3)Gal(b1-3)GalNAc = target: Kdn(a2-3)Gal(b1-3)GalNAc
Method in brief: as §1

Kdn(a2-3)Gal(b1-3)GlcNAc = target: Kdn(a2-3)Gal(b1-3)GlcNAc
Method in brief: as §1

Kdn(a2-3)Gal(b1-4)Glc = target: Kdn(a2-3)Gal(b1-4)Glc
Method in brief: as §1

Kdn(a2-3)Gal(b1-4)GlcNAc = target: Kdn(a2-3)Gal(b1-4)GlcNAc
Method in brief: as §1

[31] = target: Kdn(a2-3)Gal(b1-4)[Fuc(a1-3)]GlcNAc
Method in brief: as §1

Kdn(a2-6)Gal(b1-4)GlcNAc = target: Kdn(a2-6)Gal(b1-4)GlcNAc
Method in brief: as §1

[32] = target: Man(a1-2)Man(a1-2)Man(a1-3)Man
Method in brief: as §1

[33] = target: Man(a1-2)Man(a1-2)Man(a1-6)[Man(a1-3)]Man
Method in brief: as §1

Man(a1-2)Man(a1-3)Man = target: Man(a1-2)Man(a1-3)Man
Method in brief: as §1

[34] = target: Man(a1-2)Man(a1-3)[Man(a1-2)Man(a1-6)]Man
Method in brief: as §1

B1: LlpB (Pseudomonas fluorescens) (protein)
chain: MGSSHHHHHHSSGLVPRGSHMASSGFRIILFNSANNGTAILPPRNCLVAGQYLESPSKRYKLILEADGNLRLYDNGVPIWVADSSVPYTYVDNRPNTNLVTCFYMQGSAFLVDRVGSRTWATIGDWIDGAADRAYLQVQDDGNVVVVDGVPRWARFGFTPAALPNRGVFYPDHGTGPLPSFPVWSWTF
With B1 the “glycan array binding signal (z-score)” value (GlcNAc(b1-3)Gal(b1-4)Glc) was -0.719, the “glycan array binding signal (z-score)” value [1] was 0.313 and the “glycan array binding signal (z-score)” value [2] was 0.119. For the same binder, the “glycan array binding signal (z-score)” value [3] was 0.298, the “glycan array binding signal (z-score)” value [4] was 0.581 and the “glycan array binding signal (z-score)” value [5] was 0.075. For the same binder, the “glycan array binding signal (z-score)” value [6] was 1.22, the “glycan array binding signal (z-score)” value [7] was 0.86 and the “glycan array binding signal (z-score)” value [8] was 0.375. For the same binder, the “glycan array binding signal (z-score)” value [9] was -0.084, the “glycan array binding signal (z-score)” value [10] was 0.362 and the “glycan array binding signal (z-score)” value [11] was 0.847. The “glycan array binding signal (z-score)” value [12] was -0.751, the “glycan array binding signal (z-score)” value [13] was -0.668 and the “glycan array binding signal (z-score)” value [14] was -0.929. The “glycan array binding signal (z-score)” value [15] was -1.19, the “glycan array binding signal (z-score)” value [16] was 1.59 and the “glycan array binding signal (z-score)” value [17] was 0.272. For the same binder, the “glycan array binding signal (z-score)” value [18] was 1.38, the “glycan array binding signal (z-score)” value [19] was 1.18 and the “glycan array binding signal (z-score)” value [20] was -0.837. The “glycan array binding signal (z-score)” value (GlcNAc(b1-3)GalNAc) was -0.007, the “glycan array binding signal (z-score)” value (GlcNAc(b1-3)Man) was 0.669 and the “glycan array binding signal (z-score)” value [21] was 0.793. For the same binder, the “glycan array binding signal (z-score)” value [22] was -0.461, the “glycan array binding signal (z-score)” value [23] was -0.285 and the “glycan array binding signal (z-score)” value [24] was -1.19. For the same binder, the “glycan array binding signal (z-score)” value (GlcNAc(b1-4)GlcNAc) was -0.563, the “glycan array binding signal (z-score)” value [25] was -0.667 and the “glycan array binding signal (z-score)” value [26] was -0.31. The “glycan array binding signal (z-score)” value [27] was 1.48, the “glycan array binding signal (z-score)” value [28] was -0.513 and the “glycan array binding signal (z-score)” value [29] was 1.78. For the same binder, the “glycan array binding signal (z-score)” value (GlcNAc(b1-6)GalNAc) was -1.23, the “glycan array binding signal (z-score)” value [30] was -1.16 and the “glycan array binding signal (z-score)” value (Kdn(a2-3)Gal(b1-3)GalNAc) was 1.46. For the same binder, the “glycan array binding signal (z-score)” value (Kdn(a2-3)Gal(b1-3)GlcNAc) was 0.492, the “glycan array binding signal (z-score)” value (Kdn(a2-3)Gal(b1-4)Glc) was 3.03 and the “glycan array binding signal (z-score)” value (Kdn(a2-3)Gal(b1-4)GlcNAc) was -1.32. For the same binder, the “glycan array binding signal (z-score)” value [31] was -0.158, the “glycan array binding signal (z-score)” value (Kdn(a2-6)Gal(b1-4)GlcNAc) was 0.364 and the “glycan array binding signal (z-score)” value [32] was 0.105. For the same binder, the “glycan array binding signal (z-score)” value [33] was -1.38, the “glycan array binding signal (z-score)” value (Man(a1-2)Man(a1-3)Man) was 0.294 and the “glycan array binding signal (z-score)” value [34] was -0.485.
